Experimental data as given in publication PMC10318525.
These are yes or no findings as the source states them, for the method shown. Binding seen in cells or lysates may run through a third protein. Some binding calls cover weakened binding; strength is not graded here. One block for each substance: values may come before it.

Sequences of proteins named here, by UniProt entry; tags and fusion partners are left off. A change or cut given only in a name is not applied to a line headed by its entry. Residues count along the entry.
UniProt Q9UNE7: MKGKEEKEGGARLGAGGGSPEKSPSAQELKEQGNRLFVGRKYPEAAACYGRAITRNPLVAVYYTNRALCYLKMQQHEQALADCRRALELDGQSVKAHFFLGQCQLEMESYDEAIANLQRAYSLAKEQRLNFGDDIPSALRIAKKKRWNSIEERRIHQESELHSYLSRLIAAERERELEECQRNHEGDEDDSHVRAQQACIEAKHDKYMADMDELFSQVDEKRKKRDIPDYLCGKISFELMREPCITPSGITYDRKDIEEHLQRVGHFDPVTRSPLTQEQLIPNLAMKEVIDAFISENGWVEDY
GST-CHIP (1–197): residues 1-197 of Q9UNE7
GST-CHIP (143–303): residues 143-303 of Q9UNE7
UniProt Q16665: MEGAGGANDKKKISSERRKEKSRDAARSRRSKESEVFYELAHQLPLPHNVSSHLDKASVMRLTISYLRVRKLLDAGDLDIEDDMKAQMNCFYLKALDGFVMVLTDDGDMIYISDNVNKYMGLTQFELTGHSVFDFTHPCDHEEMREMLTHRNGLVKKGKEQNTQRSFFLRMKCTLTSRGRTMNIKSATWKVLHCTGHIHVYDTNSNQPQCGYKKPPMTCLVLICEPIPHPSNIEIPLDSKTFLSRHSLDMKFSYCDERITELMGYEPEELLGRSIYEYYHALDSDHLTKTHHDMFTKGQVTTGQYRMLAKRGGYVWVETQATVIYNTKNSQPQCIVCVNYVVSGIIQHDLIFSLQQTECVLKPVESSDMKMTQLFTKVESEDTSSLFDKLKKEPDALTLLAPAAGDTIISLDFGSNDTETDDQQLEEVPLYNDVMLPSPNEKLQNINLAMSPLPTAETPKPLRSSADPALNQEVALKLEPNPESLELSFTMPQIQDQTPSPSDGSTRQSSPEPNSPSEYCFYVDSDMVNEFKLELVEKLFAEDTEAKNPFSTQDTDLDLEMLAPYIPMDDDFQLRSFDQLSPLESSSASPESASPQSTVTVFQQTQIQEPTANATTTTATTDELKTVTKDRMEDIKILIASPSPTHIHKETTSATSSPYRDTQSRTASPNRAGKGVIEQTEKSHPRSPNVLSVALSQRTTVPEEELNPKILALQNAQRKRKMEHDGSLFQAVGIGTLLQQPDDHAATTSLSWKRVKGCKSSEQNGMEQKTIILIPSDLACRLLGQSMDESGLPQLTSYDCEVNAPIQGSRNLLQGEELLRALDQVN
GST-HIF-1α (201–329): residues 201-329 of Q16665
GST-HIF-1α (330–427): residues 330-427 of Q16665
GST-HIF-1α (428–531): residues 428-531 of Q16665
GST-HIF-1α (532–826): residues 532-826 of Q16665
UniProt P61758: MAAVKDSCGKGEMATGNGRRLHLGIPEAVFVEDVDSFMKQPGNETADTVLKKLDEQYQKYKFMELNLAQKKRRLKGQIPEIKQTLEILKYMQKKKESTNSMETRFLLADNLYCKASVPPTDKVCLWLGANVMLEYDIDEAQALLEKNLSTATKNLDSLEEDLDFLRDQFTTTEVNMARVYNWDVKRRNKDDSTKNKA

Columns and labels:
GST-CHIP (1–197) = GST-CHIP (1–197) (UniProt Q9UNE7); test: pull-down; GST or GST fusion protein from E. coli BL21 on Glutathione Sepharose 4B, mixed with HEK293T/17 cell lysate for 2 h at 4 °C; lysis buffer 50 mM Tris pH 7.5, 150 mM NaCl, 1 mM EDTA, 10% glycerol, 1% Triton X-100; bound proteins detected by blot; only the target purified
GST-HIF-1α (201–329) = GST-HIF-1α (201–329) (UniProt Q16665); test: as above
GST-HIF-1α (532–826) = GST-HIF-1α (532–826) (UniProt Q16665); test: as above
GST-CHIP (143–303) = GST-CHIP (143–303) (UniProt Q9UNE7); test: as above
GST-HIF-1α (330–427) = GST-HIF-1α (330–427) (UniProt Q16665); test: as above
GST-HIF-1α (428–531) = GST-HIF-1α (428–531) (UniProt Q16665); test: as above
[1] = target: HA-tagged HIF-1α (P402A/P564A) (human) (UniProt Q16665); test: co-IP; transiently transfected HEK293T/17 (for VBP1-Myc and Flag-HIF-1α also HeLa) cells, tagged proteins, reciprocal where indicated; IP lysis buffer 50 mM Tris pH 7.5, 150 mM NaCl, 1 mM EDTA, 10% glycerol, 1% Triton X-100; antibody overnight at 4 °C, Protein-A/G beads 6 h at 4 °C
Flag-tagged VBP1 = Flag-tagged VBP1 (UniProt P61758); test: as above
GST-VBP1 = GST-VBP1 (UniProt P61758); test: pull-down; GST or GST fusion protein from E. coli BL21 on Glutathione Sepharose 4B, mixed with HEK293T/17 cell lysate for 2 h at 4 °C; lysis buffer 50 mM Tris pH 7.5, 150 mM NaCl, 1 mM EDTA, 10% glycerol, 1% Triton X-100; bound proteins detected by blot; only the target purified
Flag-HIF-1α = Flag-HIF-1α (UniProt Q16665); test: co-IP; transiently transfected HEK293T/17 (for VBP1-Myc and Flag-HIF-1α also HeLa) cells, tagged proteins, reciprocal where indicated; IP lysis buffer 50 mM Tris pH 7.5, 150 mM NaCl, 1 mM EDTA, 10% glycerol, 1% Triton X-100; antibody overnight at 4 °C, Protein-A/G beads 6 h at 4 °C
[2] = target: endogenous VBP1 (human (endogenous in HEK293T/17)) (UniProt P61758); test: co-IP; endogenous proteins of HEK293T/17 cells; anti-VBP1 antibody used for IP

Substance: Flag-tagged VBP1 (from UniProt P61758 1-197)
binding (GST-CHIP (1–197)): binds
binding (GST-HIF-1α (201–329)): binds
binding (GST-HIF-1α (532–826)): binds
binding (GST-CHIP (143–303)): binds
binding (GST-HIF-1α (330–427)): binds
binding (GST-HIF-1α (428–531)): binds
binding [1]: binds

Substance: HIF-1α (in the HEK293T/17 lysate of the GST-VBP1 pull-down) (from UniProt Q16665 1-826)
binding (GST-VBP1): binds

Substance: VBP1-Myc (from UniProt P61758 1-197)
binding (Flag-HIF-1α): binds

Substance: endogenous CHIP (from UniProt Q9UNE7 1-303)
binding [2]: binds

The next lines start with the values.

binding (Flag-tagged VBP1): binds
Substance: HA-tagged CHIP (from UniProt Q9UNE7 1-303)

binding [2]: binds
Substance: endogenous HIF-1α (from UniProt Q16665 1-826)
